Data published in article PMC10617209.
These are yes or no findings as the source states them, for the method shown. For part of these data: Binding seen in cells or lysates may run through a third protein. Some entries that bind do so weakly or less than the wild type. For part of these data: Where a sequence is shown, tags or fusion partners need not be part of it.

Sequences of proteins named here, by UniProt entry; tags and fusion partners are left off.
UniProt P08050: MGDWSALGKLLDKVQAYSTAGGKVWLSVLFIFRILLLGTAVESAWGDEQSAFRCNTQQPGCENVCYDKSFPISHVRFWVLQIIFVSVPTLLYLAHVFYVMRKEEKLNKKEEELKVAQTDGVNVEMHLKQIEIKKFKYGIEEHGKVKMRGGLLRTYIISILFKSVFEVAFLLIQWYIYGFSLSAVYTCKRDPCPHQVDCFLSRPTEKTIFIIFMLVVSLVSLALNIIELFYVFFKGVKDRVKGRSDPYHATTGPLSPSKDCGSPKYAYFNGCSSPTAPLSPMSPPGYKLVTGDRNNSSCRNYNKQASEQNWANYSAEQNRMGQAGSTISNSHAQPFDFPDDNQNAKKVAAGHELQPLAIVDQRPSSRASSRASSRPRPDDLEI
UniProt P17302: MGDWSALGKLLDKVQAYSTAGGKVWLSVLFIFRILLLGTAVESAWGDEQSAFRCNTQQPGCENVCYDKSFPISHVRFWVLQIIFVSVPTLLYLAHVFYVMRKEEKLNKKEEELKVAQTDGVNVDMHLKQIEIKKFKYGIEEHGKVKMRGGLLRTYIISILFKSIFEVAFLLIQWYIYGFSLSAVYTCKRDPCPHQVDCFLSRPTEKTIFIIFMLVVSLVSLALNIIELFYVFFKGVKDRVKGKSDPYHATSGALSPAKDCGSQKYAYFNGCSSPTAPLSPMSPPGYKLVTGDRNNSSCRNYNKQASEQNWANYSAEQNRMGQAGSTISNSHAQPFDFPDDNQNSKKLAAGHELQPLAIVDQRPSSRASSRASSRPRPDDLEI
UniProt P40337: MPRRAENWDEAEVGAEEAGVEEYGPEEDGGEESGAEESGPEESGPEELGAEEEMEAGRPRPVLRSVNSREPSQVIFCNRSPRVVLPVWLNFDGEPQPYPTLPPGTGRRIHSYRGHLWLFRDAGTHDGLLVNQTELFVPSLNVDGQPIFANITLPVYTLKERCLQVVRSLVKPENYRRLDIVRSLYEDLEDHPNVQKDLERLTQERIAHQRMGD

T1: mixed lineage kinase domain-like protein (MLKL), rat, endogenous in thalamic VPN (rat (endogenous in Sprague-Dawley rat thalamus)) (UniProt D3ZKP6)
T1 sequence: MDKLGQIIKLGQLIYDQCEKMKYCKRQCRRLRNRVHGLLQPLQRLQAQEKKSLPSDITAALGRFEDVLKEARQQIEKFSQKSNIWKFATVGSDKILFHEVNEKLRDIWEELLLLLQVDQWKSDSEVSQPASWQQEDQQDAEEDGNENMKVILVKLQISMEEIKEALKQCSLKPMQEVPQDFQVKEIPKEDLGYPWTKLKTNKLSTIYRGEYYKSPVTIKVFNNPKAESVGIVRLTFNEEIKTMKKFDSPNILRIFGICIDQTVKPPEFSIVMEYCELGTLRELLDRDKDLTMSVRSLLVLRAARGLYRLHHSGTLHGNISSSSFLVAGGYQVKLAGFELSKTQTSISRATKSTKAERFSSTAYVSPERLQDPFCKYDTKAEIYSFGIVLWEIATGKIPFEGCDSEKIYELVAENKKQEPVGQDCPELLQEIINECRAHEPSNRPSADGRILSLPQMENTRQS


Legend:
[1] = biological target: T1, mixed lineage kinase domain-like protein (MLKL), rat, endogenous in thalamic VPN (rat (endogenous in Sprague-Dawley rat thalamus)); experiment: Western blot of multimers; MLKL and pMLKL multimers on immunoblots of rat VPN extract after dMCAO
[2] = biological target: connexin 43 (Cx43), rat, endogenous in thalamic VPN (rat (endogenous in Sprague-Dawley rat thalamus)) (UniProt P08050); experiment: co-IP; lysate of rat thalamic VPN, Sham and 2 weeks after dMCAO; antibody on Dynabeads, incubated with the extract at 4 °C for 2 h, washed thrice with PBST; Western blot
[3] = biological target: human connexin 43 (Cx43, GJA1) (WT), full-length coding sequence in plasmid CMV-MCS-Myc-SV40-neomycin (human) (UniProt P17302); experiment: co-IP; lysate of SH-SY5Y cells transfected with plasmids (MLKL WT or S454A, Cx43, VHL), without or with TSZ for 10 h; antibody on Dynabeads, 4 °C for 2 h, washed thrice with PBST; Western blot
[4] = biological target: human Von Hippel-Lindau (VHL), coding sequence in plasmid CMV-MCS-V5-SV40-neomycin (human) (UniProt P40337); experiment: as above

Row | binding [1] | binding [2] | binding [3] | binding [4] | Binder
1 | binds | binds |  |  | mixed lineage kinase domain-like protein (MLKL), rat, endogenous in thalamic VPN (protein, UniProt D3ZKP6 1-462) MDKLGQIIKLGQLIYDQCEKMKYCKRQCRRLRNRVHGLLQPLQRLQAQEKKSLPSDITAALGRFEDVLKEARQQIEKFSQKSNIWKFATVGSDKILFHEVNEKLRDIWEELLLLLQVDQWKSDSEVSQPASWQQEDQQDAEEDGNENMKVILVKLQISMEEIKEALKQCSLKPMQEVPQDFQVKEIPKEDLGYPWTKLKTNKLSTIYRGEYYKSPVTIKVFNNPKAESVGIVRLTFNEEIKTMKKFDSPNILRIFGICIDQTVKPPEFSIVMEYCELGTLRELLDRDKDLTMSVRSLLVLRAARGLYRLHHSGTLHGNISSSSFLVAGGYQVKLAGFELSKTQTSISRATKSTKAERFSSTAYVSPERLQDPFCKYDTKAEIYSFGIVLWEIATGKIPFEGCDSEKIYELVAENKKQEPVGQDCPELLQEIINECRAHEPSNRPSADGRILSLPQMENTRQS
2 |  |  | binds | binds | human MLKL (WT), full-length coding sequence in plasmid CMV-MCS-3FLAG-SV40-neomycin (protein, UniProt Q8NB16 1-471) MENLKHIITLGQVIHKRCEEMKYCKKQCRRLGHRVLGLIKPLEMLQDQGKRSVPSEKLTTAMNRFKAALEEANGEIEKFSNRSNICRFLTASQDKILFKDVNRKLSDVWKELSLLLQVEQRMPVSPISQGASWAQEDQQDADEDRRAFQMLRRDNEKIEASLRRLEINMKEIKETLRQYLPPKCMQEIPQEQIKEIKKEQLSGSPWILLRENEVSTLYKGEYHRAPVAIKVFKKLQAGSIAIVRQTFNKEIKTMKKFESPNILRIFGICIDETVTPPQFSIVMEYCELGTLRELLDREKDLTLGKRMVLVLGAARGLYRLHHSEAPELHGKIRSSNFLVTQGYQVKLAGFELRKTQTSMSLGTTREKTDRVKSTAYLSPQELEDVFYQYDVKSEIYSFGIVLWEIATGDIPFQGCNSEKIRKLVAVKRQQEPLGEDCPSELREIIDECRAHDPSVRPSVDEILKKLSTFSK
3 |  |  | binds | binds | human MLKL (S454A), full-length coding sequence in plasmid CMV-MCS-3FLAG-SV40-neomycin (protein, UniProt Q8NB16 1-471) MENLKHIITLGQVIHKRCEEMKYCKKQCRRLGHRVLGLIKPLEMLQDQGKRSVPSEKLTTAMNRFKAALEEANGEIEKFSNRSNICRFLTASQDKILFKDVNRKLSDVWKELSLLLQVEQRMPVSPISQGASWAQEDQQDADEDRRAFQMLRRDNEKIEASLRRLEINMKEIKETLRQYLPPKCMQEIPQEQIKEIKKEQLSGSPWILLRENEVSTLYKGEYHRAPVAIKVFKKLQAGSIAIVRQTFNKEIKTMKKFESPNILRIFGICIDETVTPPQFSIVMEYCELGTLRELLDREKDLTLGKRMVLVLGAARGLYRLHHSEAPELHGKIRSSNFLVTQGYQVKLAGFELRKTQTSMSLGTTREKTDRVKSTAYLSPQELEDVFYQYDVKSEIYSFGIVLWEIATGDIPFQGCNSEKIRKLVAVKRQQEPLGEDCPSELREIIDECRAHDPAVRPSVDEILKKLSTFSK
